Values joined by “and” are separate entries in the source; they are usually repeats but may differ in a detail not shown here. Identical values can stand only once. The campaign covered roughly 200,000 compounds. About 25 (0.01%) were called active. Inconclusive means that the source gave no clear call. Such entries were picked first, then a sample of the others. Calls follow the shape of the dose curve; as a rule, active = well fitted inhibition curve with a large enough effect in the signal ratio, with a control signal flat (not every such curve was filed as active); inconclusive = small, poorly fitted or top-dose-only effect, or effect the other way, or a change in a side signal; inactive = flat fitted curve, though single readings scatter; the % refers to the signal ratio. Potencies of inconclusive entries are doubtful fits and often do not repeat.
Test: qHTS Assay for Modulators of Lamin A Splicing
Details: HeLa LMNA splicing GFP/RFP minigene ratio, 48 h; ratio change, negative = inhibition: at 46.1 µM (top of the series) unless noted
Procedure, shortened: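 S3 HeLa stable clones carrying a lamin A-EGFP splicing minigene plus DsRed2 were seeded at 600 cells/well in Opti-MEM with 2% FBS, pin-dosed and incubated 48 h at 37°C. Acumen cytometry (488 nm) gave the GFP/RFP total-intensity ratio.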
With `C=CCn1c(SCCC)nc2sc3c(c2c1=O)CCc1ccccc1-3` the ratio change, negative = inhibition was inconclusive: -15.9%. In the case of `CCOC(=O)c1c(NC(=O)COC(=O)Cn2c(C(F)(F)F)nc3ccccc32)sc(C)c1C`, the “ratio change, negative = inhibition” value is reported as inactive: 5.28%. With `CCN(CC)CC(=O)Nc1c(C)cc(C(C)(C)C)cc1C` the “ratio change, negative = inhibition” value was inactive: 8.85%. For `CC1Cc2ccccc2N1C(=O)CSc1nnnn1-c1ccc2c(c1)OCCO2` (stereo not given), the ratio change, negative = inhibition was inconclusive: -40%. With `C=C(C)Cn1c(C)cc(C)c(S(=O)(=O)c2ccccc2C)c1=O` the ratio change, negative = inhibition was inconclusive: -18.4%. With `O=C(CCc1nc2ccccc2c(=O)[nH]1)OCC(=O)N1CCN(S(=O)(=O)c2ccccc2)CC1` the “ratio change, negative = inhibition” value was inactive: 5.99%. With `CS(=O)(=O)N(CC(=O)NCC1CCCO1)c1cccc(Cl)c1` (stereo not given) the ratio change, negative = inhibition was inconclusive: 18.2% [at 46 µM]. With `CCn1cc(CNC(=O)c2cc(Cl)ccc2OC)c(C)n1` the ratio change, negative = inhibition was inconclusive: 11.6%. With `CCOc1cc(/C=C\c2[nH]c(=O)[nH]c(=O)c2[N+](=O)[O-])ccc1OC(C)CC` (stereo not given) the Potency was inconclusive: 35.5 µM [inhibitor, single point]. In the case of `COc1nccnc1NS(=O)(=O)c1ccc(NC(=S)NC(=O)c2ccccc2F)cc1`, the “ratio change, negative = inhibition” value is reported as inactive: -17.8%. In the case of `COc1cc2c(C(=O)N3CCN(c4ccccc4)CC3)c(C)oc2cc1Br`, the Potency is reported as inconclusive: 35.5 µM [fluorescent, single point]. With `O=C(/C=C/c1ccc(-c2ccccc2[N+](=O)[O-])o1)c1ccc(Br)cc1` the Potency was inconclusive: 22.4 µM [inhibitor, partial curve, poor fit]. For `CCOC(=O)c1nnc(-c2ccccc2)nc1N1CCSCC1`, the ratio change, negative = inhibition was inconclusive: 39.7% [at 9.22 µM]. With `CCOC(=O)c1c(NC(=S)Nc2ccccc2)sc2c1CCN(CCc1ccccc1)C2` the “ratio change, negative = inhibition” value was inactive: 29.5%. For `COc1ccc(OC)c(C2CC(=O)Nc3cc(OC)c(OC)c(OC)c32)c1` (stereo not given), the ratio change, negative = inhibition was inconclusive: -30.3%. In the case of `Cc1cc(C)c(OCC(=O)Nc2nnn(C)n2)c(Br)c1`, the “ratio change, negative = inhibition” value is reported as inactive: -15.1%. In the case of `CC(=O)c1ccc(N2CCN(c3ccc(C(F)(F)F)cn3)CC2)cc1`, the ratio change, negative = inhibition is reported as inconclusive: -10.9%. In the case of `Cc1cccc(OCC(=O)Nc2ccc3c(c2)N(C)C(=O)c2ccccc2S3)c1`, the ratio change, negative = inhibition is reported as inconclusive: -18.2% [at 46 µM]. With `Oc1ccc(/C=N/Nc2cc(N3CCOCC3)nc(N3CCOCC3)n2)cc1O` the “ratio change, negative = inhibition” value was inactive: -15.1%. In the case of `Cc1ccc(-n2nc(C)c3nc(CCC(=O)Nc4ccc(F)cc4)c(=O)n(C)c32)cc1`, the ratio change, negative = inhibition is reported as inconclusive: 32.8% [at 46 µM]. With `NC1=NC(=O)/C(=C\c2ccsc2)S1` the ratio change, negative = inhibition was inconclusive: -14.2% [at 46 µM]. In the case of `CC(C)NC(=O)CSc1nc(N)c(NC(=O)c2ccccc2F)c(=O)[nH]1`, the “ratio change, negative = inhibition” value is reported as inactive: -0.183%. In the case of `CCOc1cc(/C=N/NC(=O)CSc2cccc3cccnc23)ccc1O`, the ratio change, negative = inhibition is reported as inconclusive: -17.6% [at 46 µM]. With `CC1(C)CC(NC(=S)NCc2ccc3c(c2)OCO3)CC(C)(C)N1` the ratio change, negative = inhibition was inconclusive: -27.3% [at 46 µM]. For `O=C(Nc1ccc(F)cc1)c1cccc(N2C(=O)C3C4CCC(C4)C3C2=O)c1` (stereo not given), the Potency was inconclusive: 14.1 µM [fluorescent, single point]. With `CN(c1ccccc1)S(=O)(=O)c1cccc(C(=O)Nc2nccs2)c1` the ratio change, negative = inhibition was inconclusive: -30.2% [at 46 µM]. In the case of `COc1ccccc1N1CCN(CC(=O)Nc2ccc(Cl)c(C(F)(F)F)c2)CC1`, the Potency is reported as inconclusive: 35.5 µM [falling, single point]. For `CCN1CCN(c2cc(C)c3cc(NC(=S)N4CCC5(CC4)OCCO5)ccc3n2)CC1`, the ratio change, negative = inhibition was inconclusive: -6.14% [at 46 µM]. In the case of `NS(=O)(=O)c1cc2c(cc1Cl)NC=NS2(=O)=O`, the ratio change, negative = inhibition is reported as inconclusive: -15.6% and inconclusive: -2.16%. In the case of `O=C(CCNc1ccc(Cc2ccncc2)cc1)c1ccc([N+](=O)[O-])cc1`, the ratio change, negative = inhibition is reported as inconclusive: -13.3% [at 9.22 µM]. For `CSc1nc(C)cc(SCC(=O)Nc2ccc(Cl)cc2Cl)n1`, the Potency was inconclusive: 35.5 µM [fluorescent, single point]. In the case of `Cc1cccc(Nc2nc(N)c([N+](=O)[O-])c(N3CCOCC3)n2)c1`, the ratio change, negative = inhibition is reported as inconclusive: -0.651%. For `C[C@H](NC(=O)OC(C)(C)C)C(=O)NCC1CCC(C(=O)O)CC1` (stereo not given in full), the ratio change, negative = inhibition was inconclusive: 7.3% [at 46 µM]. For `Cc1ccc(NC(=S)Nc2cccc3cnccc23)c(C)c1`, the ratio change, negative = inhibition was inconclusive: 5.18% [at 9.22 µM]. With `O=C(O)CNS(=O)(=O)c1ccc(Br)s1` the “ratio change, negative = inhibition” value was inactive: 6.21%. In the case of `COc1ccc(OC)c(S(=O)(=O)Nc2cc3c(cc2C)n(C)c(=O)c(=O)n3C)c1`, the ratio change, negative = inhibition is reported as inconclusive: 8.04% [at 46 µM]. In the case of `O=S(=O)(c1ccc(Br)cc1)N1CCN=C1SCc1cccnc1`, the ratio change, negative = inhibition is reported as inconclusive: 28.5% [at 9.22 µM]. In the case of `CCOC(=O)c1sc(NC(=O)CSc2n[nH]c(-c3ccncc3)n2)c(C#N)c1C`, the Potency is reported as inconclusive: 3.55 µM [falling, full curve, poor fit]. In the case of `CC(C)CN=C(NS(=O)(=O)c1ccccc1)C(Cl)(Cl)Cl`, the ratio change, negative = inhibition is reported as inconclusive: 20.5%. For `Oc1ccc(N=Cc2ccc(-c3cccs3)s2)cc1`, the ratio change, negative = inhibition was inconclusive: 26.3%. For `Cc1nn(S(=O)(=O)c2ccc(Cl)cc2)c(C)c1Sc1ccc([N+](=O)[O-])cc1`, the ratio change, negative = inhibition was inconclusive: -42.6%. With `Cc1ccc(NC(=O)NCc2ccc3c(c2)CCN3C(=O)c2ccccc2)c(Cl)c1` the ratio change, negative = inhibition was inconclusive: -7.26% [at 46 µM]. In the case of `COc1ccc(-n2cc(CNCCc3cscn3)c(-c3ccccc3Cl)n2)cc1`, the ratio change, negative = inhibition is reported as inconclusive: 18.5% [at 46 µM]. In the case of `COc1cccc(N2CC(NC(=O)Cc3cccs3)CC2=O)c1` (stereo not given), the ratio change, negative = inhibition is reported as inconclusive: 15.9% [at 46 µM]. In the case of `O=C(CSc1nnc(-c2ccc(O)cc2)n1Cc1ccco1)N1CCc2ccccc2C1`, the ratio change, negative = inhibition is reported as inconclusive: 10.5%. With `CC(=O)c1cccc(NS(=O)(=O)c2ccc3[nH]c4c(c3c2)CCCCCC4)c1` the “ratio change, negative = inhibition” value was inactive: -4.12% [at 46 µM]. In the case of `c1cncc(-c2noc(-c3ccco3)n2)c1`, the ratio change, negative = inhibition is reported as inconclusive: 21.8%. With `CCCCCCSC1=C(C#N)C(=O)NC2(CCCCC2)S1` the ratio change, negative = inhibition was inconclusive: 7.8%. In the case of `Cc1cc(/C=C/C(=O)O)c(C)n1-c1ccc(Cl)cc1`, the “ratio change, negative = inhibition” value is reported as inactive: -18% [at 46 µM]. With `NC(N)=NC(=O)Cc1c(Cl)cccc1Cl` the ratio change, negative = inhibition was inconclusive: -13% and inconclusive: -18.4%.

— PubChem BioAssay AID1487 (National Center for Advancing Translational Sciences (NCATS), 2009)
% is scaled to controls: 0 for no effect and ±100 for the full control effect; potency is read from the fitted curve at half-maximal effect.
